The list shows a part of the results.

In the test the test system is T1, CTL2-GFP (C. trachomatis L2/434/Bu, GFP-expressing).
T1 construct: L2/434/Bu, GFP-expressing
Further details: species or system HeLa; Intracellular C. trachomatis growth in HeLa cells, bulk GFP fluorescence relative to DMSO. As to conditions: bulk GFP, single well; 28.5 h, 10 µM; inhibitor.
With `O=C(NCc1ccc2c(c1)OCO2)c1cnc2sccn2c1=O` [CBK287446], the “% of control remaining” value came out at 128.7%.
The same measure for `Cn1cc(CNCCCN2CCc3ccccc32)c(-c2cccnc2)n1` [CBK306316]: 134.14%; for `Cc1csc(CNCc2c(C(C)C)nn(C)c2N(C)C)n1` [CBK305089]: 115.048%; for `Cc1oc(NC(=O)CN2CCN(c3ccccc3Cl)CC2)c(C#N)c1C` [CBK305908]: 153.257%.
The same measure for `CCOC(=O)Cn1c(-c2ccc(OC)cc2)cc2cccnc21` [CBK283320]: 129.593%.
Then `COc1ccc(-n2ncc(CN(C)C)n2)cc1OC` [CBK112862], with 102.518%; and `CCCC(CCC)NC(=O)c1ccc(-n2nc(C(=O)OCC)c(Cl)c2C)cc1` [CBK114323], with 94.9693%; and `O=C(O)COc1ccc(NC(=O)c2ccc3c(c2)C(=O)N(CC2CCCO2)C3=O)cc1` (stereo not shown) [CBK263719], with 133.076%.
In the case of `COc1ccc(-c2cc(C(=O)N3CCN(C(C)=O)CC3)cnc2-c2ccccc2)cn1` [CBK036637], the “% of control remaining” value is listed as 194.978%.
Turning to `COc1ccc2c(c1)CCN=C2C[C@H]1CN(C(=O)NC(C)C)CC[C@H]1CC(=O)O` [CBK289156], the “% of control remaining” value was 108.399%.
The same measure for `Nc1nonc1-n1nnc(CN2CCCCC2)c1CN1CCCCC1` [CBK270636]: 155.782%; for `Cc1[nH]c2ccc(F)cc2c1CC(=O)N(C)CCN(C)C` [CBK282726]: 153.874%; for `CC(=O)Nc1ccc(CNc2nnc(C3CCCCC3)o2)cc1` [CBK306427]: 137.656%.
Then `Cc1cc(/C=C2\SC(=O)N(CC(=O)Nc3ccccc3F)C2=O)c(C)n1-c1cccnc1` [CBK264770], with 118.556%; and `CC(=O)c1cc(C(=O)Nc2ccc(NC(=O)C(=O)O)cc2)oc1C` [CBK264011], with 127.699%; and `CCN(CC)c1c(C)nc2ccc(C(=O)Nc3cc(-c4ccccc4)ccc3OC)cn12` [CBK145980], with 79.7433%.
The same measure for `CC(Cc1nc(-c2cnn(C)n2)cs1)n1cc(Cl)cn1` (stereo not shown) [CBK304256]: 83.1017%; for `O=C(O)c1ccc(Cl)c(S(=O)(=O)NCc2ccco2)c1` [CBK304575]: 123.035%.
Consider `CCOC(=O)C(CNC(=O)c1c(C)nn(C)c1C)Cc1ccccc1` (stereo not shown) [CBK305276], for which the “% of control remaining” value came to 147.046%.
Then `COc1cc(/C=C(/C#N)c2ccc(C(=O)O)cc2)cc(Br)c1OCC(=O)O` [CBK268956], with 145.171%; and `O=C(Oc1ccc(/C=N/c2ccc(O)c(-c3nc4ccccc4s3)c2)cc1)c1ccccc1Cl` [CBK261241], with 117.369%.
The same measure for `COc1cc(Cl)nnc1Cl` [CBK018956]: 117.039%; for `Cc1cccc(/C(C#N)=C\c2cn(CC(=O)O)c3ccccc23)c1` [CBK269457]: 92.2839%.
The same measure for `CCOC(=O)C(C(=O)OCC)(N1CCOCC1)N1CCOCC1` [CBK261176]: 116.208%; for `CC(=O)N1CCc2cc(NC(=O)C3CC4C=CC3C43CC3)ccc21` (stereo not shown) [CBK281472]: 94.0881%; for `COc1cc(CNC(=O)c2cncc(-c3ccc(C(=O)N4CCOCC4)cc3)c2)cc(OC)c1OC` [CBK158632]: 102.76%.
In the case of `O=C(Nc1cccc(C(F)(F)F)c1)N1CCC(n2c(=O)[nH]c3ccccc32)CC1` [CBK149845], the “% of control remaining” value was found to be 87.1721%.
As for `CC1CC1C(=O)N1CCC(c2nc3ccccc3cc2N)CC1` (stereo not shown) [CBK285090], the “% of control remaining” value is given as 110.406%.
Consider `O=S(=O)(Nc1cccc2cc[nH]c12)c1ccc(Br)cc1C(F)(F)F` [CBK159519], for which the “% of control remaining” value was 69.5558%.
The same measure for `COc1cc(C(C)NC(=O)c2ccc(=O)[nH]n2)ccc1OC1CCCC1` (stereo not shown) [CBK298335]: 121.187%; for `CCCCc1ccc(S(=O)(=O)Nc2nccnc2-c2cccs2)cc1` [CBK050770]: 120.03%; for `Cc1cnc(COC(=O)N2C[C@@H](C)O[C@@H](C)C2)cn1` [CBK200124]: 134.347%.
Then `CC(C)CCNC(=O)N1CCNC(=O)C1` [CBK155874], with 119.506%.
Then `CCNC(=O)NC[C@H]1C[C@@H]2CCN1C[C@@H]2c1cc(C2CCCC2)nn1C` [CBK288743], with 100.074%; and `O=C(CSc1cnn[nH]1)Nc1cccc(C(F)(F)F)c1` [CBK269888], with 145.871%; and `CCOc1ccc(N2C(=O)CC(N3CCN(c4ccc(C(=O)c5ccncc5)cc4)CC3)C2=O)cc1` (stereo not shown) [CBK269124], with 125.604%.
For `Cc1nn(C)c(C)c1CN(C)C(=O)c1cc(-c2ccc(F)cc2)on1` [CBK281587], the “% of control remaining” value was 119.79%.
Then `O=C(NCC(O)c1ccccc1)Nc1ccccc1` (stereo not shown) [CBK057227], with 94.5447%; and `CCN(Cc1ccccc1)[C@@H](CO)Cc1ccc(OC)cc1` [CBK073856T], with 133.679%.
With `Cc1cccn2c(=O)c(/C=C3\SC(=S)N(Cc4ccccc4)C3=O)c(NCCCn3ccnc3)nc12` [CBK263833], the “% of control remaining” value amounted to 126.119%.
For the compound `COc1ccc(OC)c(Nc2nc(NCC3CCCO3)c3ccccc3n2)c1` (stereo not shown) [CBK268403C], the “% of control remaining” value is 37.445%.
The same measure for `Cc1ccc(S(=O)(=O)NC(C)(C)CSc2ccccc2)cc1` [CBK268354]: 109.175%; for `C#CCN1C(=O)C2(OCCO2)c2cccc(C)c21` [CBK019069]: 133.542%; for `COc1ccc2sc(N(Cc3cccnc3)C(=O)CCc3ccccc3)nc2c1` [CBK294423]: 141.672%.
Then `COc1cc(NS(=O)(=O)c2ccc(NC(=O)c3c(C)noc3C)cc2)nc(OC)n1` [CBK268151], with 122.184%; and `Cn1cc(CC(=O)Nc2ccc(N3CCNCC3)nc2)c2ccccc21` [CBK028275T], with 174.684%; and `c1ccc2c(c1)[nH]c1nc(SCCN3CCCCC3)nnc12` [CBK263249], with 113.149%.
Then `OCCN(Cc1ccccc1)Cc1ccc(Cl)c(Cl)c1` [CBK261908], with 85.1418%.
With `OC1CCC(Nc2cncc(-c3cccc(F)c3)n2)CC1` (stereo not shown) [CBK065449], the “% of control remaining” value is 137.12%.
Then `O=C(O)CSc1nc2c(-c3ccco3)c3c(nc2o1)CCCC3` [CBK269266], with 115.731%; and `CCNC(=O)N(C)c1c(CC)nc2c(OCc3ccc(S(C)(=O)=O)cc3)cccn12` [CBK147797], with 118.033%; and `O=C(NCC1CCOC1)c1ccc(-c2ccccc2CO)cc1` (stereo not shown) [CBK306616], with 76.6767%.
`CC(C)c1ccsc1C(=O)N1CCC2(C1)NC(=O)NC2=O` (stereo not shown) [CBK305188]: the “% of control remaining” value stood at 146.534%.
Then `Cc1ccccc1Cc1cccc(C2CCN(S(=O)(=O)c3cn[nH]c3)CC2)n1` [CBK286125], with 120.793%; and `COC(=O)c1c(NC(=S)Nc2cnccn2)sc2c1CCC2` [CBK266935], with 150.086%.
Regarding `O=C(CSc1nnc(-c2ccccc2Cl)[nH]1)c1ccc(O)c(O)c1` [CBK267693], the “% of control remaining” value is 138.983%.
As to `CCOc1ccccc1C(=O)Nc1ccc(O)cc1` [CBK099037], the “% of control remaining” value is 181.509%.
Then `CO/C(=N\S(=O)(=O)c1ccccc1)c1ccccc1` [CBK023221], with 119.759%.
Then `Clc1ccc(-c2nccnc2OCc2ccccn2)cc1Cl` [CBK107108], with 93.2219%.
For `CCOc1ccccc1NC(=O)C(C)Oc1ccc(OC)cc1` (stereo not shown) [CBK266648], the “% of control remaining” value worked out at 93.7727%.
Then `COc1cc(CNc2nccnc2-c2ccco2)cc(OC)c1OC` [CBK037320], with 146.066%; and `Cn1c(=O)c2c(nc(CN3CCN(Cc4ccccc4)CC3)n2CCc2ccccc2)n(C)c1=O` [CBK269523], with 133.38%.
The same measure for `CCCC/C=C/c1cnc(N)c(Nc2ccc(OC)cc2)n1` [CBK063890]: 122.51%; for `CN1C(=O)COc2ccccc2C/C=C/C[C@@H]2[C@H]1CCCN2S(=O)(=O)N1CCOCC1` [CBK292063]: 144.331%.
Then `Cc1c(Br)c([N+](=O)[O-])nn1C(C)C(=O)Nc1sc2c(c1C(N)=O)CCCC2` (stereo not shown) [CBK268914], with 121.106%; and `Cc1cc(COc2nc3ccccc3nc2NC(C)C(C)C)no1` (stereo not shown) [CBK174007], with 124.894%.
Regarding `O=C(NCCc1ccc(Cl)cc1)C1(Cc2ccc(-c3ccncc3)cc2)CCOCC1` [CBK285570], the “% of control remaining” value came to 56.1081%.
Then `Cc1onc(-c2ccccc2)c1C(=O)N1CCN(CCN2CCCC2)CC1` [CBK158558], with 118.6%; and `O=C(O)c1cccc(Sc2cccc(C(F)(F)F)n2)c1` [CBK093592], with 100%; and `NS(=O)(=O)c1ccc(CCNC(=O)c2ccc(C#CC3(O)CCCCC3)cc2)cc1` [CBK263104], with 111.449%.
The same measure for `CCCC(=O)c1ccc(S(=O)(=O)N2CCN(Cc3cccc(F)c3C)CC2)cc1` [CBK063152]: 148.624%; for `CCOc1ccc(N2C(=O)CC(N3CCN(CCc4ccccn4)CC3)C2=O)cc1` (stereo not shown) [CBK270149]: 116.295%; for `Cc1ccc2oc(-c3ccc(O)cc3)nc2c1` [CBK093878]: 80.2623%.
The same measure for `O=C(Nc1cccc(NS(=O)(=O)c2ccc(Cl)cc2)c1)c1ccco1` [CBK265956]: 119.04%; for `Cc1cccn2cc(CCNC(=O)CN3Cc4ccccc4C3)nc12` [CBK305166]: 152.855%.
As to `COc1ccccc1CCC(=O)Nc1cnn(C)c1` [CBK287995], the “% of control remaining” value turned out to be 84.9865%.
Take `OC1(c2cccnc2F)CCN(Cc2ccc(F)c(F)c2)CC1` [CBK284370]: the “% of control remaining” value is 130.462%.
Then `Cc1csc2c(C3CCN(C(=O)c4cscn4)CC3)nc(C)n12` [CBK285246], with 138.715%; and `COc1ccc(C(=O)c2oc3cc(NC(=O)c4cccnc4)ccc3c2C)cc1` [CBK287652], with 132.329%.

Values taken from article PMC12040169 (PLOS Biology, 2025).
